Reference: PubChem BioAssay AID588590 (National Center for Advancing Translational Sciences (NCATS), 2011)
About 4,000 (1%) of roughly 390,000 compounds were called active. The inconclusive results got no clear call from the source; some entries with a clear call stand among them for comparison. Calls follow the shape of the dose curve; as a rule, active = well fitted inhibition curve with a large enough effect; inconclusive = small, poorly fitted or top-dose-only effect, or another doubt; inactive = no such curve, though single readings can be large or run the other way. Where the call is inconclusive, the potency comes from a doubtful curve fit.

The chains behind the UniProt entries cited, without tags or fusion partners. Where a name states a change or a piece, a line headed by the entry shows the natural chain unless it says otherwise.
UniProt Q9UNA4: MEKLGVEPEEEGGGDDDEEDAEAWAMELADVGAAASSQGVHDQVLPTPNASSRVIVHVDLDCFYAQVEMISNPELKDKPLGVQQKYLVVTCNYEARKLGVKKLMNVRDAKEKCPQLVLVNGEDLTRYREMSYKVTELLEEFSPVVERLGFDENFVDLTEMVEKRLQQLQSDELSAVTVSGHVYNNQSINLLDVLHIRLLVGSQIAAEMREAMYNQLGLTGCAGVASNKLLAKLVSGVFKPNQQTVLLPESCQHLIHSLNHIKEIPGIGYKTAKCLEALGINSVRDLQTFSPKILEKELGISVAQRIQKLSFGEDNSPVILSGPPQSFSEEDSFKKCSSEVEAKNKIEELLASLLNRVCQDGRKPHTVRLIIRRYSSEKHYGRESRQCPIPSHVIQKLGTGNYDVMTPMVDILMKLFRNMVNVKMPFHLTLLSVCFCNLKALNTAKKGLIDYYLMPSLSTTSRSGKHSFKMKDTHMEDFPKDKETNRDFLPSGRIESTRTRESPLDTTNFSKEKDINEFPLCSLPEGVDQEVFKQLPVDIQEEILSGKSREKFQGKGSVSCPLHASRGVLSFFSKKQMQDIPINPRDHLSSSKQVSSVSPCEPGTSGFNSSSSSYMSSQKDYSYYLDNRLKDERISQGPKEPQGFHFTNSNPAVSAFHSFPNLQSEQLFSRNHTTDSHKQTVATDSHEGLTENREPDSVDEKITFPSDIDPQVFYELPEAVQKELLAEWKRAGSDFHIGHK

target: DNA polymerase iota (Homo sapiens) (UniProt Q9UNA4); assay: qHTS for Inhibitors of Polymerase Iota; conditions: Pol iota fluorescent replication assay, 10 min; series mostly up to 115 µM
Method in brief: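 Fluorescent replication assay read twice, at 0 min and 10 min after adding 50 nM (final) substrate. Enzyme (10 nM) and compounds were first incubated 15 min at room temperature; enzyme-free buffer wells were negative controls.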
Potency is read from the fitted curve at half-maximal effect.

Row | Structure (SMILES) | Potency
1 | Cc1ccccc1N | inactive
2 | CCN(CC)CCCN=C(C)c1c(O)n(-c2ccc(C)cc2)c(=O)[nH]c1=O | inconclusive: 112 µM [inhibitor, partial curve, poor fit]
3 | Nc1ncc2[nH]cnc2n1 | inconclusive: 10 µM [inhibitor, partial curve, poor fit]
4 | NCC(O)c1cc(O)c(O)cc1F (stereo unspecified) | active: 28.2 µM
5 | Nc1c(C(=O)NCCCc2ccccc2)c2nc3ccccc3nc2n1Cc1cccs1 | inconclusive: 25.1 µM [inhibitor, partial curve, poor fit]
6 | CCn1c(O)c(N=Nc2ccc(S(=O)(=O)N3CCOCC3)cc2)c(=O)n(CC)c1=S | inconclusive: 20 µM [inhibitor, full curve]
7 | COC(=O)C1=C(c2cccc(OC)c2OC)C[C@@H]2CC[C@H]1N2C(=O)NCc1ccccc1 | inconclusive: 56.2 µM [inhibitor, partial curve, poor fit]
8 | COc1cc(/C=C2/SC(=S)N(Cc3ccccc3)C2=O)ccc1OCC(=O)O | inconclusive: 20 µM [inhibitor, full curve]
9 | O=C(O)C(NC(=O)c1ccccc1)=C(Cl)Cl | inconclusive: 44.7 µM [inhibitor, partial curve, poor fit]
10 | Cc1cc(C)cc(N2C(=O)NC(=O)/C(=C\c3cccn3-c3ccc(Cl)cc3)C2=O)c1 | inconclusive: 39.8 µM [inhibitor, single point]
11 | CC(C)CCNC(=O)c1c(N)n(CC2CCCO2)c2nc3ccccc3nc12 (stereo unspecified) | inconclusive: 14.1 µM [inhibitor, partial curve, poor fit]
12 | CC(C)CC(=O)NC(Oc1ccc(Cl)cc1)C(Cl)(Cl)Cl (stereo unspecified) | inactive
13 | O=C(CN1CC=C(c2ccccc2)CC1)Nc1c(Cl)cccc1Cl | inactive
14 | O=C(O)CCn1cc(C=C2C(=O)NC(=O)NC2=O)c(-c2ccc(Br)cc2)n1 | inconclusive: 39.8 µM [inhibitor, single point]
15 | CCOC(C(=O)OCCC[N+](C)(CC)CC)(c1ccccc1)c1ccccc1 | inconclusive: 100 µM [inhibitor, partial curve]
16 | COc1cc(-c2nc3ccc(Cl)cn3c2Nc2ccc3c(c2)OCCO3)ccc1O | inconclusive: 8.91 µM [inhibitor, partial curve, poor fit]
17 | CC(C)[N+](C)(CCC(C(N)=O)(c1ccccc1)c1ccccc1)C(C)C | inconclusive: 25.1 µM [inhibitor, single point]
18 | Cn1nc(-c2ccccc2)nc2c(=O)n(C)c(=O)nc1-2 | inactive
19 | [Hg+][c]1ccccc1 | active: 14.1 µM
20 | C/C=C(/C)C(=O)O[C@H]1C(C)=C2C([C@@H]1OC(=O)CCCCCCC)[C@@](C)(OC(C)=O)C[C@@H](OC(=O)CCC)[C@@]1(O)[C@H]2OC(=O)[C@@]1(C)O (stereo partly specified) | inconclusive: 20 µM [inhibitor, single point]
21 | O=C1NC(=O)N(c2ccccc2)C(=O)/C1=C\C=C\c1ccccc1 | inconclusive: 25.1 µM [inhibitor, partial curve, poor fit]

Looked up by compound from the list above, three records:
Row | Structure (SMILES) | Potency
14 | O=C(O)CCn1cc(C=C2C(=O)NC(=O)NC2=O)c(-c2ccc(Br)cc2)n1 | inconclusive: 39.8 µM [inhibitor, single point]
4 | NCC(O)c1cc(O)c(O)cc1F (stereo unspecified) | active: 28.2 µM
20 | C/C=C(/C)C(=O)O[C@H]1C(C)=C2C([C@@H]1OC(=O)CCCCCCC)[C@@](C)(OC(C)=O)C[C@@H](OC(=O)CCC)[C@@]1(O)[C@H]2OC(=O)[C@@]1(C)O (stereo partly specified) | inconclusive: 20 µM [inhibitor, single point]

(more compounds)

Row | Structure (SMILES) | Potency
22 | CN1C(=O)C(=Cc2ccc(Sc3ccccc3)o2)C(=O)N(C)C1=S | inconclusive: 12.6 µM [inhibitor, full curve, poor fit]
23 | Cc1ccc(NC(=O)N(Cc2ccc3c(c2)OCO3)C2CCN(Cc3ccccc3)CC2)cc1Cl | inactive
24 | O=C1NC(=O)C(=Cc2cccs2)C(=O)N1 | inconclusive: 35.5 µM [inhibitor, partial curve, poor fit]
25 | CCOC(=O)c1ccc(N=Cc2c(O)n(-c3ccccc3F)c(=S)[nH]c2=O)cc1 | inconclusive: 28.2 µM [inhibitor, full curve]
26 | COc1ccc(/C=C2/C(=O)NC(=S)N(C3CC3)C2=O)cc1CN1C(=O)c2ccccc2C1=O | inconclusive: 25.1 µM [inhibitor, partial curve]
27 | CC(C)n1c(O)c(C=NCc2cccnc2)c(=O)[nH]c1=S | inconclusive: 14.1 µM [inhibitor, partial curve, poor fit]
28 | CN(C)c1ccc(/C=C/c2cc[n+](C)c3ccccc23)cc1 | active: 79.4 µM
29 | CCN(CC)C(=O)c1ccc(NC(=O)Cn2nc(-c3ccc(C)cc3)c3ccccc3c2=O)cc1 | inconclusive: 89.1 µM [inhibitor, single point]
30 | CN(C)C1C(=O)C(C(N)=O)=C(O)C2(O)C(=O)C3=C(O)c4c(O)cccc4C(C)(O)C3CC12 (stereo unspecified) | inconclusive: 28.2 µM [inhibitor, partial curve, poor fit]
31 | N#CC1=C(N)Oc2c(c(=O)oc3ccccc23)C1c1ccncc1 (stereo unspecified) | inactive
32 | c1cncc(CNC2CCCC2)c1 | inconclusive: 15.8 µM [inhibitor, single point]
33 | CCc1ccccc1N1C(=O)/C(=C/c2ccc(N3CCN(C)CC3)o2)C(=O)NC1=S | active: 11.2 µM
34 | COc1cc(CN2CC(C)OC(C)C2)cc(OC)c1 (stereo unspecified) | inconclusive: 39.8 µM [inhibitor, single point]
35 | C=CCN1C(=O)NC(=O)/C(=C/c2cnc(SC)nc2)C1=O | inactive
36 | COc1cc(OC)cc(C(=O)Nc2nc(-c3nnn(-c4ccc(C)cc4)c3C)ns2)c1 | inconclusive: 89.1 µM [inhibitor, partial curve, poor fit]
37 | C[C@]12CCC3C(CC[C@H]4C[C@H](N)CC[C@]34C)C1CC[C@H]2O (stereo partly specified) | inconclusive: 50.1 µM [inhibitor, partial curve]
38 | COc1ccc(N2C(=O)/C(=C/c3cccs3)C(=O)NC2=S)cc1 | inconclusive: 31.6 µM [inhibitor, single point]
39 | O=C1NC(=O)N(c2ccccc2)C(=O)/C1=C\c1ccccc1[N+](=O)[O-] | inconclusive: 39.8 µM [inhibitor, single point]
40 | CC(/C=C(\C)Nc1ccccc1)=Nc1ccccc1 | inactive
41 | C=C1C(=O)O[C@@H]2C[C@@H](C)[C@@H]3C4OC4C(=O)[C@@]3(C)[C@@H](O)[C@H]12 (stereo partly specified) | inconclusive: 11.2 µM [inhibitor, full curve]
